Reference: PubChem BioAssay AID720505 (Drosophila RNAi Screening Center, 2013)
In all, the deposit lists about 20,000 reagents; this is an unselected part of those with a known target gene and a result. In the full data, about 2,100 (10%) are marked active. 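Raw plate signals without normalisation; calls rest on control-based scores that were not deposited; replicate 2 separates called from uncalled poorly.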 Names joined by + are all predicted targets of the reagent. The record does not give: the amount of reagent, the time to read-out.

- Screen: 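Knock-downs that reduce calcium influx once internal stores are emptied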 (primary screen)
- System: Drosophila S2R+ cells
- Reagent: long dsRNA against Drosophila genes
- Treatment: thapsigargin (2 µM) in calcium-free buffer to empty internal stores, then 2 mM calcium added back
- Read-out: 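Fluo-4 signal in 384-well plates read on a FLIPR after thapsigargin (2 µM, calcium-free) store depletion and 2 mM calcium add-back; unnormalised mean endpoint per well; screen run twice, selected wells retested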
- Reading the numbers: calcium signal: higher = more calcium entry after store depletion
- Hit rule: 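Knock-downs counted as hits when calcium entry dropped relative to STIM1 positive and Rho1 negative controls present on each plate; roughly 1500 genes called, with reductions of differing size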
- Meaning of the calls: active = called as lowering calcium entry; inactive = not called

eIF3j (GeneID 36037) [DRSC06107]
- calcium signal, replicate 1: 215
- calcium signal, replicate 2: 161
- Call: inactive

CG17129 (GeneID 38080) [DRSC08508]
- calcium signal, replicate 1: 53.9
- calcium signal, replicate 2: 130
- Call: active

asRNA:CR31144 + RpL3 [DRSC16834]
- calcium signal, replicate 1: 64.6
- calcium signal, replicate 2: 71.8
- Call: active

Ugt35B1 (GeneID 41333) [DRSC16893]
- calcium signal, replicate 1: 107
- calcium signal, replicate 2: 142
- Call: inactive

MICAL-like (GeneID 39475) [DRSC09829]
- calcium signal, replicate 1: 63.2
- calcium signal, replicate 2: 121
- Call: active

dco (GeneID 43673) [DRSC16929]
- calcium signal, replicate 1: 118
- calcium signal, replicate 2: 204
- Call: inactive

Usp30 (GeneID 31519) [DRSC18265]
- calcium signal, replicate 1: 220
- calcium signal, replicate 2: 103
- Call: inactive

veli (GeneID 43003) [DRSC16276]
- calcium signal, replicate 1: 194
- calcium signal, replicate 2: 139
- Call: inactive

CG3420 (GeneID 35585) [DRSC04995]
- calcium signal, replicate 1: 119
- calcium signal, replicate 2: 211
- Call: inactive

mRpS18C (GeneID 43609) [DRSC16538]
- calcium signal, replicate 1: 126
- calcium signal, replicate 2: 125
- Call: inactive

CG32811 (GeneID 318222) [DRSC22649]
- calcium signal, replicate 1: 77.8
- calcium signal, replicate 2: 201
- Call: inactive

cpa (GeneID 37387) [DRSC04080]
- calcium signal, replicate 1: 160
- calcium signal, replicate 2: 102
- Call: inactive

2 of these entries, set out differently.
| Gene | amplicon | calcium signal, replicate 1 | calcium signal, replicate 2 | Call |
| --- | --- | --- | --- | --- |
| CG17129 (GeneID 38080) | DRSC08508 | 53.9 | 130 | active |
| asRNA:CR31144 + RpL3 | DRSC16834 | 64.6 | 71.8 | active |
